We go through one molecule from patent publication US12378250B2, “Tricyclic compound as IRAK4 inhibitor” (KOREA RESEARCH INSTITUTE OF CHEMICAL TECHNOLOGY, priority 2018, dated 2025).

By UniProt entry, the sequences of proteins in these tests, tags left out.
UniProt Q9NWZ3, whole entry: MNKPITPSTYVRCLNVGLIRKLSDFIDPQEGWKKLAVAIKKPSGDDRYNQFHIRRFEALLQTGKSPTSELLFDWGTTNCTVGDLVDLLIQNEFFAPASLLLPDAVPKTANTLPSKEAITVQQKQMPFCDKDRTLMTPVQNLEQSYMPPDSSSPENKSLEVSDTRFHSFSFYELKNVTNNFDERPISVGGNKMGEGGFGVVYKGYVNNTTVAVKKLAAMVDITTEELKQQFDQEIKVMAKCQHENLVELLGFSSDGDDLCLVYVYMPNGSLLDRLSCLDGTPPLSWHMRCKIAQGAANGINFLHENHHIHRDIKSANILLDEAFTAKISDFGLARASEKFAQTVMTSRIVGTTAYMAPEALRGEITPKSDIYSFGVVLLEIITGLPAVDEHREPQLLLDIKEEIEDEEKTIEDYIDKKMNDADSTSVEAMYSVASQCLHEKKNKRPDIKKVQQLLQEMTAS

The term IC50 denotes the midpoint of a concentration-inhibition curve.

Structures were worked out from names or drawings and are uncertain.

This experiment addresses IRAK4 enzyme (Homo sapiens, UniProt Q9NWZ3). Description: IRAK4 enzyme inhibition degree (bead-based kinase assay, peptide substrate BMKC-2, 100 μM ATP). On the procedure: 2.5 μl of a compound diluted to 4-fold of a final concentration was put into a 384-well white plate (low volume). 2.5 μl of 0.4 ng/μl IRAK4 enzyme was added thereto, and the resulting mixture was totally reacted for 10 minutes. 5 μl of a mixed liquid of a 6 μM peptide substrate (BMKC-2) and 100 μM ATP was added thereto, the resulting mixture was reacted at room temperature for 60 minutes, then 2.5 μl of 10 mM EDTA was added thereto, and the resulting mixture was reacted again for 10 minutes. 40 nM anti-phospho Thr antibody was aliquoted to 2.5 μl each, 5 μl of a mixed solution of a 160 μl/ml acceptor bead and a donor bead was added thereto, and then the resulting mixture was reacted at room temperature for 60 minutes. Fluorescence signals were measured using a bead experimental apparatus (Fusion alpha-FP Microplate Reader, Perkin Elmer Inc.).
From the detected signal, an activity inhibition rate [% inhibition degree=(the average value of a compound−the average value of a negative control)/(the average value of a positive control−the average value of a negative control)×100] was calculated, and is shown in [Table 1]. Further, a % inhibition degree of the compound at each concentration was obtained, and then a 50% inhibition concentration (IC50 value) was analyzed by a non-linear regression analysis.

Regarding `CCn1c(-c2ccc3[nH]c4ncnc(N[C@H]5CC[C@H](N6CCOCC6)CC5)c4c3c2)n[nH]c1=O`, the IC50 came to 314 nM. Besides, for the setting “compound 1 μM”, the “% Inhibition degree @ 1 μM” value came out at 79%.
